# The campaign covered roughly 400,000 compounds. About 13,000 (3.2%) were called active. Inconclusive results, whose numbers are uncertain, are shown with a selection of clear calls. Calls follow the shape of the dose curve; as a rule, active = well fitted cell-killing curve with a large enough effect; inconclusive = small, poorly fitted or top-dose-only effect, or effect the other way; inactive = flat fitted curve, though single readings scatter. Potencies beside an inconclusive call are fits to weak or partial responses and may not hold up.
# Assay: qHTS assay for MDR1-selective chemotherapeutics: Primary screen using the drug-selected MDR subline cells KB-V1; also: nearly all actives have a fitted effect of over 60% in size
# Conditions: KB-V1 MDR cells viability, CellTiter-Glo, 72 h; activity change, negative = cytotoxicity: at 46.1 µM (top of the series)
# How it was run: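 Drug-selected KB-V1 cells, grown in DMEM lacking phenol red with 10% FBS, receive compound titrations; after three days at 37 degrees C, surviving cell ATP is quantified by CellTiter-Glo luminescence and responses normalized and curve-fitted.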
# % is scaled to controls: 0 for no effect and ±100 for the full control effect; potency is read from the fitted curve at half-maximal effect.
SMILES,Potency,"activity change, negative = cytotoxicity"
COc1ccccc1C1=NOC(COc2ccc3c(C)cc(=O)oc3c2)C1 (stereo unspecified),active: 18.4 µM,
COc1ccc(CN2C(=O)C(CC(=O)NCCN3CCOCC3)CC(C(=O)N3CCOCC3)=C2C)cc1 (stereo unspecified),,inactive: 0%
O=C(c1cc(-c2ccccc2Cl)nc2ccccc12)N1CCC1,"inconclusive: 8.2 µM [cytotoxic, partial curve, poor fit]",
COc1cccc(CNc2nc3ccc(NC(C)=O)cc3s2)c1,,inactive: -5.03%
CC(=O)N(C1=C(Cl)C(=O)c2ccccc2C1=O)C1CCCCC1,"inconclusive: 20.6 µM [cytotoxic, single point]",
CS(=O)(=O)N1N=C(c2ccccc2)CC1c1ccc2nccnc2c1 (stereo unspecified),active: 20.6 µM,
COCCn1cnc2c(c1=O)c1nc3ccccc3nc1n2/N=C/c1cccc(OC)c1,"inconclusive: 18.4 µM [cytotoxic, single point]",
O=C(Nc1ccnn1C1CCN(Cc2ccc(OC(F)F)cc2)CC1)C1CCCC1,"inconclusive: 18.4 µM [cytotoxic, partial curve, poor fit]",
COc1ccc(NC2=C(c3ccc(OC)cc3)C(=O)c3ccccc32)cc1,active: 5.17 µM,
O=C(Nc1cccc(Oc2ccccc2)c1)C1Cc2c(-c3ccccc3)ccnc2O1 (stereo unspecified),"inconclusive: 25.9 µM [cytotoxic, single point]",
COc1cc(C)ccc1Oc1ccc([N+](=O)[O-])cc1,"inconclusive: 25.9 µM [cytotoxic, single point]",
C(=N\c1ncnc2sccc12)/NOCc1ccccc1,"inconclusive: 16.4 µM [cytotoxic, single point]",
CN(C)CCC(Oc1ccccc1OCc1ccccc1)c1ccccc1 (stereo unspecified),,inactive: -14.3%
CCn1cc(C(=O)OCC(=O)N(C)C2CCS(=O)(=O)C2)c(=O)c2ccc(C)nc21 (stereo unspecified),"inconclusive: 20.6 µM [rising, partial curve]",
CCOc1ccc(NC(=S)NNC(=O)c2ccc(Br)cc2)cc1,"inconclusive: 29.1 µM [cytotoxic, partial curve, poor fit]",
O=C(CSCc1nc2ccccc2[nH]1)Nc1ccccc1,"inconclusive: 29.1 µM [cytotoxic, single point]",
Oc1ccccc1N1CCN(C(=S)NCCc2ccccc2)CC1,active: 14.6 µM,
Cc1[nH]c2ccccc2c1/C=N/NC(=O)c1cccs1,"inconclusive: 16.4 µM [cytotoxic, single point]",
S=c1[nH]nc(Cc2ccccc2)n1Cc1ccco1,"inconclusive: 29.1 µM [cytotoxic, single point]",
Cn1c(=O)c2[nH]c(COc3ccc(C(C)(C)C)cc3)nc2n(C)c1=O,,inactive: -9.05%
CC(=O)Nc1ccc(NC(=O)CSc2nnc3c4cc(Br)ccc4n(C)c3n2)cc1,"inconclusive: 16.4 µM [rising, single point]",
c1ccc2cc3[nH]c(CN4CCOCC4)nc3cc2c1,"inconclusive: 29.1 µM [rising, single point]",
CCC(=Cc1ccccc1OC)c1ccncc1,,inactive: -0.744%

SMILES,Potency,"activity change, negative = cytotoxicity"
CCN1C(=NCC(C)C)N[C@@H](CCc2ccccc2)[C@H](C(=O)NCC(C)C)[C@H]1C,"inconclusive: 16.4 µM [rising, single point]",
COc1cc(C(=O)Nc2ccccc2N2CCOCC2)ccc1OCc1c(C)noc1C,active: 4.61 µM,
COCCNC(=O)c1c(N)n(CCC2=CCCCC2)c2nc3ccccc3nc12,"inconclusive: 23.1 µM [cytotoxic, partial curve, poor fit]",
O=C(COc1ccc(C(=O)c2ccccc2)cc1)NCC1CCCCC1,,inactive: 0%
Cc1nn(-c2ccccc2)c(C)c1NC(=O)CCl,"inconclusive: 20.6 µM [cytotoxic, single point]",
CN(C)CCN1CCc2ccccc21,"inconclusive: 29.1 µM [rising, single point]",
CCCNS(=O)(=O)c1ccc(CCC(=O)N2CCN(c3ccc(OC)cc3)CC2)cc1,active: 20.6 µM,
CC(Sc1ccc(Cl)cc1)C(=O)Nc1ccc(S(=O)(=O)N2CCOCC2)cc1 (stereo unspecified),"inconclusive: 18.4 µM [cytotoxic, single point]",
O=C(O)c1ccc(-n2ccnc2)c([N+](=O)[O-])c1,"inconclusive: 29.1 µM [rising, single point]",
COc1ccc(-c2cc(-c3ccccc3)nc(SCC(=O)Nc3nccs3)c2C#N)cc1,"inconclusive: 6.51 µM [cytotoxic, partial curve]",
COc1ccc(OC)c(NC(=O)COC(=O)CCCN2C(=O)c3ccccc3C2=O)c1,"inconclusive: 29.1 µM [rising, single point]",
CC(C)C(=O)Nc1cccc(S(=O)(=O)NC2=NCCC2)c1,"inconclusive: 1.64 µM [rising, partial curve, poor fit]",
CC1(C)CC(=O)C2=C(C1)OC(N)=C(C#N)C2C1C=CCCC1 (stereo unspecified),"inconclusive: 16.4 µM [cytotoxic, single point]",
Cc1ccc(CNC(=O)C2CCN(c3nc4ccc(C)cc4[nH]3)CC2)cc1,,inactive: -14.4%
COc1ccc(N2CCN(C(=O)CNC(=O)Cc3ccc(Cl)cc3)CC2)cc1,active: 10.3 µM,
O=C1OCCN1C(=O)[C@H]1[C@H](c2ccc([N+](=O)[O-])cc2)C(c2ccc(F)cc2)=NN1c1ccccc1,,inactive: -0.251%
O=C(COc1ccc(Br)cc1)NC1CC1,,inactive: -1.58%
O=C(N/N=C/c1cn(-c2ccccc2)nc1-c1cccs1)c1ccc(Cl)cc1,active: 14.6 µM,
CCn1cc(C(=O)NCc2ccc(Cl)cc2)c(=O)c2cc(S(=O)(=O)N(C)C)ccc21,active: 14.6 µM,
COc1cc(OC)c(OC)cc1CNC(=O)c1ccc(S(=O)(=O)N2CC(C)OC(C)C2)cc1 (stereo unspecified),,inactive: -18.4%
NS(=O)(=O)c1ccc(CCNC(=O)C(c2ccccc2)c2ccccc2)cc1,,inactive: 22.6%
O=C(NCCc1ccccn1)c1ccc(COc2ccccc2)o1,"inconclusive: 18.4 µM [cytotoxic, partial curve]",
COc1cccc(C(=O)NC(c2ccc(Cl)cc2)c2cc(Cl)c3cccnc3c2O)c1 (stereo unspecified),"inconclusive: 0.517 µM [cytotoxic, full curve, poor fit]",

# Taken from above.
# NS(=O)(=O)c1ccc(CCNC(=O)C(c2ccccc2)c2ccccc2)cc1 | activity change, negative = cytotoxicity: inactive: 22.6%
# O=C(CSCc1nc2ccccc2[nH]1)Nc1ccccc1 | Potency: inconclusive: 29.1 µM [cytotoxic, single point]
# O=C(O)c1ccc(-n2ccnc2)c([N+](=O)[O-])c1 | Potency: inconclusive: 29.1 µM [rising, single point]
